Source: patent publication US9931760B2, “Functionalized polyorganosiloxanes or silanes for the treatment of lignocellulosic materials” (Momentive Performance Materials GmbH, priority 2011, dated 2018)

How the values were obtained:
[1] = Water absorption of treated wood samples immersed in water (weight gain after 2, 4, 6 and 24 hours)
[2] = Weight increase (Weight Percent Gain) of wood by the treatment
[3] = Bulking and swelling-shrinkage efficiency (ASE) of treated wood

## CCC[Si](OC(C)=O)(OC(C)=O)OC(C)=O [Example 3, propyltriacetoxysilane]
[1]; pine splint and beech, after 24 hours
  reduced water absorption after 24 hours compared to untreated reference: about 70 wt-%
[2]; in average, kiln dried, after storage or immersion in water
  percentage weight increase relating to the initial weight: approximately 68%

## CCC[Si](OC(C)=O)(OC(C)=O)OC(C)=O [Example 2, propyltriacetoxysilane]
[1]; pine splint and beech, 30 wt-% in acetic acid, 5 hours at 120° C., after 24 hours
  water absorption after 24 hours lower compared to the control: approximately 25%
[2]; based on the initial weights of the 10 samples
  average weight increase in the kiln dry state: about 14 wt-%
[3]; in average, compared to the untreated reference
  swelling-shrinkage efficiency (ASE): about 50%
[3]; pine splint and beech, 30 wt-% in acetic acid, 5 hours at 120° C.
  cross-sectional area increase (bulking): 7%

## CC(=O)OC(C)=O [Example 4, acetic anhydride, reference compound]
[1]; 4th water absorption, pine splint, compared to control
  reduction of water absorption after 24 hours, 4th water absorption: −34.9%
[1]; first water absorption, after 24 hours, compared to untreated control
  water absorption [%] 1. (reduction of water absorption after 24 hours, first water absorption): −12.8%
